Test results as given in the supplement of paper PMC10849652.
The other results are listed elsewhere or left out.

Protein sequences, listed by entry. Tags and fused reporters are not part of them. Lines headed by an entry give the natural chain unless they say otherwise; changes in a name come on top.
UniProt Q8WY22: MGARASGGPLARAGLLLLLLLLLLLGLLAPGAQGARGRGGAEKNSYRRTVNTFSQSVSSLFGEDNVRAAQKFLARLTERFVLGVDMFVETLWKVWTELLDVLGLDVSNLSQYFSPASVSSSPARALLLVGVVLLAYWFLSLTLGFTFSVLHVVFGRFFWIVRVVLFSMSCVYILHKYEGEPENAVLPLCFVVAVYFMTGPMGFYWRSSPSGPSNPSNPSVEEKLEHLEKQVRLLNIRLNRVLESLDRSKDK
UniProt O75934: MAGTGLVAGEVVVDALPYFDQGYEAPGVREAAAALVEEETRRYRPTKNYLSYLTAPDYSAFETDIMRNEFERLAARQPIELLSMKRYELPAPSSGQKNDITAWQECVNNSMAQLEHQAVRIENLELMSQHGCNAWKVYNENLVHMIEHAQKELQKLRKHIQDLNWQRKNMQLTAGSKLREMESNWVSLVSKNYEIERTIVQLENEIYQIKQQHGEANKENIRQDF
UniProt Q9BXK5, whole entry, looked up: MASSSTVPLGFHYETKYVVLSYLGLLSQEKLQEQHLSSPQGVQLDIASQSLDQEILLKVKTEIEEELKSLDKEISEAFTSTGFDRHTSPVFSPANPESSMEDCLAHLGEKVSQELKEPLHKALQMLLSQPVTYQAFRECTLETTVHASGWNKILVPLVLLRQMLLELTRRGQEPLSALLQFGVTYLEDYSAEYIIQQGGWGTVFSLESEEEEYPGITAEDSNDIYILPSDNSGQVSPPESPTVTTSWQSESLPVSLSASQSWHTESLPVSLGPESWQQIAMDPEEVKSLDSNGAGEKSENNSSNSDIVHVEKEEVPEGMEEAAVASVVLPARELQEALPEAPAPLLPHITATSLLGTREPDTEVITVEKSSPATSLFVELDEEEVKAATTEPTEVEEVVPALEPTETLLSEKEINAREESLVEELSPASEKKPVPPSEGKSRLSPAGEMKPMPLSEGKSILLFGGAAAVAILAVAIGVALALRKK
UniProt Q13490, whole entry, looked up: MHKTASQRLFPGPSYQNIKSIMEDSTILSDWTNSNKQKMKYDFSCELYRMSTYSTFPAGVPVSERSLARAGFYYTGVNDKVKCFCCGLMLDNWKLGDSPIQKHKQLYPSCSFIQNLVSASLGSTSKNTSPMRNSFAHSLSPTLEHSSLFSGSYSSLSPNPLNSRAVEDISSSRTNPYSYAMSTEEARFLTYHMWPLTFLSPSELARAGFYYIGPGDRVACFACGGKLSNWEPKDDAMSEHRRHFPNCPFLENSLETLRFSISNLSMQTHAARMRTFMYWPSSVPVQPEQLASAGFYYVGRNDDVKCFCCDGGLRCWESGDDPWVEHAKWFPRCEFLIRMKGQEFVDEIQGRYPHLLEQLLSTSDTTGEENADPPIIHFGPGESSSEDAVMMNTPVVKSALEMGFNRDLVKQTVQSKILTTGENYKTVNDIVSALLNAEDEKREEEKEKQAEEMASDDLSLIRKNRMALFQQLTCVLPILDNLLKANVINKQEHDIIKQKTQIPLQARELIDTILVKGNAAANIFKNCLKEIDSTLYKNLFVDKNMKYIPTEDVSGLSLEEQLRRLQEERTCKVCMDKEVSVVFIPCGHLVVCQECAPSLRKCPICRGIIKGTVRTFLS
UniProt Q99700, whole entry, looked up: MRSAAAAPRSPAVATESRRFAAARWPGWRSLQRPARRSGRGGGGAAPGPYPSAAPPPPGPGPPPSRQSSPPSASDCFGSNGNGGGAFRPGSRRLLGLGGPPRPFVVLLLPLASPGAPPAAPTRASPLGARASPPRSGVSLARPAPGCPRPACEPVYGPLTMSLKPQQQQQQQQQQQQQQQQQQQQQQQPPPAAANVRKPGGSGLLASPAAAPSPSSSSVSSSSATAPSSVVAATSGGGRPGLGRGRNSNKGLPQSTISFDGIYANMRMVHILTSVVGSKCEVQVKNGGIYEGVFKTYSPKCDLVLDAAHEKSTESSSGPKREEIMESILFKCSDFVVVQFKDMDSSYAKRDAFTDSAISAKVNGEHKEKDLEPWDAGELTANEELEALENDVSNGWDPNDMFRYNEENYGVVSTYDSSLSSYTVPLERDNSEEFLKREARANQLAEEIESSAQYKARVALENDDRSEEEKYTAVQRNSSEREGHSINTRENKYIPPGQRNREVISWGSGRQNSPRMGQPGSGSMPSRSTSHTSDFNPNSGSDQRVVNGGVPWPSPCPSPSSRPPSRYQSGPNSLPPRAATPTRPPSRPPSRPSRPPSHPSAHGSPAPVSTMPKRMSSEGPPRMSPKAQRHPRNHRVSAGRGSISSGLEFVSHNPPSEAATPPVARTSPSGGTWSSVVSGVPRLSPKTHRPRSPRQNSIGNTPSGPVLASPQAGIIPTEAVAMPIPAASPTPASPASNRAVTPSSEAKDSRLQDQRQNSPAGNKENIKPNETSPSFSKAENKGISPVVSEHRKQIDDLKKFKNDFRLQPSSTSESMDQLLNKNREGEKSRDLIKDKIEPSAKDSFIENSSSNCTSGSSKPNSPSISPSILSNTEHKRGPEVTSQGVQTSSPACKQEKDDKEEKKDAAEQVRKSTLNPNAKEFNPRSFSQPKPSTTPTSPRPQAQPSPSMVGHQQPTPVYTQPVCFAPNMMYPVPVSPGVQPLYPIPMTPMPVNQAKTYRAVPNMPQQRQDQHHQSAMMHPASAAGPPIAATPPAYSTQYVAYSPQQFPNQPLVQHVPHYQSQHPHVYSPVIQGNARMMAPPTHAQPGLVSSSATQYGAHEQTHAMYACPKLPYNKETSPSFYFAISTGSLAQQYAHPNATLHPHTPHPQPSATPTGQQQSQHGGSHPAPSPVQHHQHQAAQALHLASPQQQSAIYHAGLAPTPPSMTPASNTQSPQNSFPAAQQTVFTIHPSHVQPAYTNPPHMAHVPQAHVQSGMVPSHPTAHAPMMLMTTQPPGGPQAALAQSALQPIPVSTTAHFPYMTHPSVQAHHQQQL
UniProt Q9NW68: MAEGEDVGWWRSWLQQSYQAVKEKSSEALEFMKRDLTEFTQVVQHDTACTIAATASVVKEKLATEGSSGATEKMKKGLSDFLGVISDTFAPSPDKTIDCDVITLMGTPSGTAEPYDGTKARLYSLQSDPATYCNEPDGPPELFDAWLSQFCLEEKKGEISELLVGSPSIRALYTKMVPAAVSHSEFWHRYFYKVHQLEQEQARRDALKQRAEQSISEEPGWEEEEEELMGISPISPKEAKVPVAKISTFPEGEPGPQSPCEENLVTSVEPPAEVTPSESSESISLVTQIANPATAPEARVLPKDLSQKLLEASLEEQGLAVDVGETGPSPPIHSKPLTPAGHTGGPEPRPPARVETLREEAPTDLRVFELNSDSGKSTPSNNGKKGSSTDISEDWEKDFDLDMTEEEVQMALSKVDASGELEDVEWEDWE
UniProt P46736, whole entry, looked up: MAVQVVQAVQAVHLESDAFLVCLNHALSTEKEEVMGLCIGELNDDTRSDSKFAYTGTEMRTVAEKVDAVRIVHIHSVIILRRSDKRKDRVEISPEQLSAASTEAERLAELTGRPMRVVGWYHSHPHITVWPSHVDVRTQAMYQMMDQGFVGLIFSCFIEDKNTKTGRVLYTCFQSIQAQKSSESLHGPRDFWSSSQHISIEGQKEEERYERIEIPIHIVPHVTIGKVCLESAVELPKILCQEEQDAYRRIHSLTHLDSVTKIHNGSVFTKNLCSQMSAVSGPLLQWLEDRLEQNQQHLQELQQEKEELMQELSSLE
UniProt Q53S33: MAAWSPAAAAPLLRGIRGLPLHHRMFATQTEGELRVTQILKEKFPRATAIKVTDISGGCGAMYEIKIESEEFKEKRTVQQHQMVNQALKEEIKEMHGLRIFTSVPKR
UniProt P07738: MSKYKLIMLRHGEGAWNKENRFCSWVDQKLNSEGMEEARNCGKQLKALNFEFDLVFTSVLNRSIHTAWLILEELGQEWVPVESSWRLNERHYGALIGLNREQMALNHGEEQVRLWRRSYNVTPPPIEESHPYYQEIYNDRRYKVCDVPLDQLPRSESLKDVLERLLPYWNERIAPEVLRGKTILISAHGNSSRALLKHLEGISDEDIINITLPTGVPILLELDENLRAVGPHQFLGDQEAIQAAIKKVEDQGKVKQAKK
UniProt P78537: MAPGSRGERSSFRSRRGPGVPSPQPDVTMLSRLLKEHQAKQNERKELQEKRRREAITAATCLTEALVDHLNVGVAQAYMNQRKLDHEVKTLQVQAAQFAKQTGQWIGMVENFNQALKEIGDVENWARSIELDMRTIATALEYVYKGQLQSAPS
UniProt Q9NXR7, whole entry, looked up: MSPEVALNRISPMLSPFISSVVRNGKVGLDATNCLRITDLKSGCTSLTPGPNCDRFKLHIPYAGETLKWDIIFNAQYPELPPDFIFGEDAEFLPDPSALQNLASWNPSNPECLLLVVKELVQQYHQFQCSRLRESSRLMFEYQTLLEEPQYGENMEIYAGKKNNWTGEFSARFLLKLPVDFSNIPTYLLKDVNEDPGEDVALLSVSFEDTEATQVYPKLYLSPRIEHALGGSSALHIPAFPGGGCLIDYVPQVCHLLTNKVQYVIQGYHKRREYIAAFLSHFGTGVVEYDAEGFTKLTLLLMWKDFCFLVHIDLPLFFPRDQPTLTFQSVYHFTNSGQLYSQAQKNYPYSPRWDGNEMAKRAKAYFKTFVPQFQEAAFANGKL
UniProt Q9H3K6: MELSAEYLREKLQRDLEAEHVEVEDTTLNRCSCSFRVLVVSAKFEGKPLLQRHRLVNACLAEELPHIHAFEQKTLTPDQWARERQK
UniProt Q9NY97: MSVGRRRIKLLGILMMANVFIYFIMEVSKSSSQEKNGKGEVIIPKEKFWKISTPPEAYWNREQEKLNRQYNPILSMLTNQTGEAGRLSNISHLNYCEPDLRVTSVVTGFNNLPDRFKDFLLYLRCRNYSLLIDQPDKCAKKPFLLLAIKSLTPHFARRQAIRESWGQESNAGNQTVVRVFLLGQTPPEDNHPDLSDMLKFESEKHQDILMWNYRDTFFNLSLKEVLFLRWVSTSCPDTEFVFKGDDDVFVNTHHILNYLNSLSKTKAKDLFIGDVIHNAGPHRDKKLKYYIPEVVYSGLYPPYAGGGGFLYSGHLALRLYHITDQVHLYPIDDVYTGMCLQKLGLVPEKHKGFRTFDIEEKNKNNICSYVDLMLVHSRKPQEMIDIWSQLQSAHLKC

Tests used:
Experiment in all cases: log2 fold change, soluble protein after heating vs DMSO (PISA); higher = thermal stabilisation; K562 cells, 10 uM, 30 min; active = over 0.2 and 3.5 SD of the protein, either way, in both replicates (recomputed)
[1] = compound: CN1CCN(CCOc2cc(OC3CCOCC3)c3c(Nc4c(Cl)ccc5c4OCO5)ncnc3c2)CC1 [saracatinib]
Method in brief: (§1)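 Soluble protein was quantified by TMTpro 16plex LC-MS/MS after channel sums were equalised. It was obtained as the supernatant after 21,000xg for 90 min from pooled aliquots of K562 cells (2×10^6 cells/mL, 10 μM compound, 30 min) heated for 3 min across 48°C-58°C and extracted in PBS with 0.5% NP-40 at 4°C. Thermal stability values are relative to control samples and come from duplicates. They are given as log2 fold changes.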

[2] = compound: CN1CCN(c2nc(C3=C(c4c[nH]c5ccccc45)C(=O)NC3=O)c3ccccc3n2)CC1 [sotrastaurin]
Method in brief: as §1

[3] = compound: CN1CC[C@H](c2c(O)cc(O)c3c(=O)cc(-c4ccccc4Cl)oc23)[C@H](O)C1 [alvocidib]
Method in brief: as §1

[4] = compound: CN1CCc2c(c3ccccc3n2Cc2ccc(C(=O)NO)cc2)C1 [Tubastatin A]
Method in brief: as §1

[5] = compound: CNC(=O)C1=CC=CC=C1NC2=NC(=NC=C2Cl)NC3=C(C=C(C=C3)N4CCOCC4)OC
Method in brief: as §1

[6] = compound: CNC(=O)c1ccc(Nc2ncc(C(F)(F)F)c(NCc3nccnc3N(C)S(C)(=O)=O)n2)cc1 [defactinib]
Method in brief: as §1

[7] = compound: CNCc1ccc(-c2[nH]c3cc(F)cc4c3c2CCNC4=O)cc1 [rucaparib]
Method in brief: as §1

[8] = compound: CNc1nc(-c2ccc3c(N)n[nH]c3c2)cc(N2C[C@@H](C(=O)NC3CCCCC3)CC[C@H]2C)n1
Method in brief: as §1

[9] = compound: COC(=O)N[C@@H](C)CNc1nccc(-c2cn(C(C)C)nc2-c2cc(Cl)cc(NS(C)(=O)=O)c2F)n1 [encorafenib]
Method in brief: as §1

[10] = compound: COC(=O)[C@H](CCSC)NC(=O)C1=C(C=C(C=C1)NC[C@H](CS)N)C2=CC=CC=C2
Method in brief: as §1

[11] = compound: COC1=CC=C(C=C1)CN2C=CC3=C2C=C(C=C3)C(=O)NO
Method in brief: as §1

[12] = compound: CON(C)C(=O)N1N=C(c2cc(F)ccc2F)S[C@@]1(CCCN)c1ccccc1 [filanesib]
Method in brief: as §1

[13] = compound: CO[C@H]1C[C@@H]2CC[C@@H](C)[C@@](O)(O2)C(=O)C(=O)N2CCCC[C@H]2C(=O)O[C@H]([C@H](C)C[C@@H]2CC[C@H](n3cnnn3)[C@H](OC)C2)CC(=O)[C@H](C)/C=C(\C)[C@@H](O)[C@@H](OC)C(=O)[C@H](C)C[C@H](C)/C=C/C=C/C=C/1C [zotarolimus]
Method in brief: as §1

[14] = compound: COc1cc(C(=O)O)ccc1NC(=O)[C@@H]1N[C@@H](CC(C)(C)C)[C@](C#N)(c2ccc(Cl)cc2F)[C@H]1c1cccc(Cl)c1F [idasanutlin]
Method in brief: as §1

[15] = compound: COc1cc(Nc2ncc3c(n2)-c2ccc(Cl)cc2C(c2c(F)cccc2OC)=NC3)ccc1C(=O)O [alisertib]
Method in brief: as §1

[16] = compound: COc1cc2nc(-c3cc(F)ccc3O)nc(N[C@@H]3CNC[C@H]3C(C)(C)O)c2cc1OC
Method in brief: as §1

[17] = compound: COc1cc2ncnc(Nc3ccc(F)c(Cl)c3)c2cc1OCCCN1CCOCC1 [gefitinib]
Method in brief: as §1

[18] = compound: COc1cccc2cc(-c3nc([C@H]4CC[C@H](C(=O)O)CC4)n4ncnc(N)c34)[nH]c12
Method in brief: as §1

[19] = compound: CS(=O)(=O)CCNCc1ccc(-c2ccc3ncnc(Nc4ccc(OCc5cccc(F)c5)c(Cl)c4)c3c2)o1 [lapatinib]
Method in brief: as §1

[20] = compound: CS(=O)(=O)N1CCN(Cc2cc3nc(-c4cccc5[nH]ncc45)nc(N4CCOCC4)c3s2)CC1 [pictilisib]
Method in brief: as §1

Measured: log2 fold change

BRI3BP (UniProt Q8WY22)
inactive: [1] -0.017 | [2] 0.2 | [3] -0.012 | [4] 0.07 | [5] -0.173 | [6] -0.084 | [7] 0.089 | [8] -0.06 | [9] -0.006 | [10] 0.047 | [11] 0.004 | [12] -0.026 | [13] -0.035 | [14] 0.062 | [15] -0.193 | [16] 0.015 | [17] 0.019 | [18] 0.138 | [19] 0.039

BCAS2 (UniProt O75934)
inactive: [1] 0.128 | [2] -0.09 | [3] -0.011 | [4] 0.007 | [5] -0.008 | [6] 0 | [7] 0.062 | [8] 0.047 | [9] -0.032 | [10] 0.012 | [11] -0.037 | [12] 0.041 | [13] 0.05 | [14] -0.06 | [15] -0.119 | [16] 0.043 | [17] -0.038 | [18] 0.01 | [19] -0.05 | [20] -0.015

BAHCC1 (UniProt Q9P281)
inactive: [1] -0.191 | [2] 0.1 | [3] 0.114 | [4] -0.034 | [5] -0.021 | [6] 0.005 | [7] -0.261 | [8] -0.168 | [9] 0.07 | [10] 0.014 | [11] -0.443 | [12] 0.032 | [13] 0 | [14] -0.042 | [15] 1.11 | [16] 0.239 | [17] 0.054 | [18] 0.207 | [19] -0.227 | [20] 0.164

BCL2L13 (UniProt Q9BXK5)
inactive: [1] 0.009 | [2] -0.035 | [3] -0.085 | [4] -0.055 | [5] 0.015 | [6] -0.021 | [7] 0.013 | [8] 0.001 | [9] -0.005 | [10] 0.038 | [11] -0.001 | [12] -0.12 | [13] 0.065 | [14] -0.026 | [15] -0.047 | [16] 0.002 | [17] -0.028 | [18] 0.06 | [19] 0.008 | [20] 0.016

Quoted from the listing (two entries):
BAHCC1 (UniProt Q9P281)
inactive: [1] -0.191 | [2] 0.1 | [3] 0.114 | [4] -0.034 | [5] -0.021 | [6] 0.005 | [7] -0.261 | [8] -0.168 | [9] 0.07 | [10] 0.014 | [11] -0.443 | [12] 0.032 | [13] 0 | [14] -0.042 | [15] 1.11 | [16] 0.239 | [17] 0.054 | [18] 0.207 | [19] -0.227 | [20] 0.164

BCL2L13 (UniProt Q9BXK5)
inactive: [1] 0.009 | [2] -0.035 | [3] -0.085 | [4] -0.055 | [5] 0.015 | [6] -0.021 | [7] 0.013 | [8] 0.001 | [9] -0.005 | [10] 0.038 | [11] -0.001 | [12] -0.12 | [13] 0.065 | [14] -0.026 | [15] -0.047 | [16] 0.002 | [17] -0.028 | [18] 0.06 | [19] 0.008 | [20] 0.016

More results follow.

BIRC2 (UniProt Q13490)
inactive: [1] 0.036 | [2] 0.028 | [3] -0.134 | [4] -0.002 | [5] 0.018 | [6] -0.049 | [7] 0.003 | [8] 0.035 | [9] 0.007 | [10] 0.039 | [11] -0.01 | [12] 0.01 | [13] 0.011 | [14] -0.007 | [15] -0.093 | [16] 0.139 | [17] 0.029 | [18] 0.097 | [19] -0.106 | [20] 0.031

ATXN2 (UniProt Q99700)
inactive: [1] 0.008 | [2] 0.013 | [3] -0.023 | [4] -0.013 | [5] 0.015 | [6] -0.016 | [7] 0.086 | [8] -0.009 | [9] -0.011 | [10] 0.028 | [11] -0.019 | [12] 0.017 | [13] -0.009 | [14] 0.066 | [15] 0.176 | [16] 0.024 | [17] 0.037 | [18] 0.013 | [19] 0.027 | [20] 0.007

BSDC1 (UniProt Q9NW68)
inactive: [1] 0.031 | [2] -0.053 | [3] -0.029 | [4] -0.059 | [5] 0.01 | [6] -0.069 | [7] -0.025 | [8] -0.055 | [9] 0.006 | [10] 0.019 | [11] -0.058 | [12] -0.047 | [13] -0.032 | [14] -0.038 | [15] -0.047 | [16] -0.118 | [17] -0.06 | [18] 0.029 | [19] -0.038 | [20] -0.004

BRCC3 (UniProt P46736)
inactive: [1] 0.009 | [2] 0.037 | [3] 0.024 | [4] -0.077 | [5] -0.023 | [6] 0.016 | [7] 0.01 | [8] -0.013 | [9] -0.004 | [10] -0.004 | [11] 0.035 | [12] 0.016 | [13] -0.028 | [14] 0.016 | [15] -0.073 | [16] -0.023 | [17] -0.03 | [18] 0.008 | [19] -0.016 | [20] -0.067

BOLA3 (UniProt Q53S33)
inactive: [1] 0.009 | [2] 0.077 | [3] -0.039 | [4] -0.021 | [5] 0.003 | [6] -0.028 | [7] -0.044 | [8] -0.051 | [9] -0.073 | [10] -0.02 | [11] -0.082 | [12] -0.025 | [13] -0.048 | [14] -0.019 | [15] 0.017 | [16] 0 | [17] -0.013 | [18] 0.045 | [19] -0.016 | [20] -0.013

BPGM (UniProt P07738)
inactive: [1] 0.04 | [2] 0.068 | [3] 0 | [4] 0.012 | [5] -0.051 | [6] 0.007 | [7] -0.001 | [8] -0.062 | [9] -0.047 | [10] 0.003 | [11] -0.014 | [12] 0.044 | [13] -0.029 | [14] -0.037 | [15] -0.048 | [16] 0.028 | [17] 0.036 | [18] 0.037 | [19] -0.033 | [20] -0.015

BLOC1S1 (UniProt P78537)
inactive: [1] 0.001 | [2] 0.006 | [3] -0.062 | [4] 0.015 | [5] -0.032 | [6] -0.037 | [7] -0.037 | [8] 0.002 | [9] -0.104 | [10] 0 | [11] -0.14 | [12] -0.072 | [13] 0.021 | [14] -0.093 | [15] -0.066 | [16] -0.044 | [17] -0.009 | [18] 0.007 | [19] -0.037 | [20] -0.014

BABAM2 (UniProt Q9NXR7)
inactive: [1] 0.074 | [2] -0.007 | [3] 0.009 | [4] -0.108 | [5] -0.027 | [6] -0.019 | [7] 0.083 | [8] -0.038 | [9] -0.026 | [10] 0.042 | [11] -0.024 | [12] -0.007 | [13] -0.016 | [14] 0.038 | [15] -0.007 | [16] 0.01 | [17] 0.028 | [18] 0.076 | [19] -0.028 | [20] 0.012

BOLA2 (UniProt Q9H3K6)
inactive: [1] 0 | [2] -0.014 | [3] -0.032 | [4] 0.007 | [5] 0.074 | [6] -0.027 | [7] -0.007 | [8] -0.003 | [9] 0.021 | [10] -0.048 | [11] -0.042 | [12] -0.005 | [13] -0.01 | [14] -0.061 | [15] -0.102 | [16] -0.037 | [17] -0.001 | [18] 0.006 | [19] -0.01 | [20] 0.045

BIRC6 (UniProt Q9NR09)
inactive: [1] -0.015 | [2] -0.02 | [3] -0.014 | [4] 0.004 | [5] 0.023 | [6] 0.006 | [7] -0.118 | [8] 0.025 | [9] 0.095 | [10] -0.007 | [11] 0 | [12] 0.024 | [13] 0.02 | [14] -0.065 | [15] -0.061 | [16] 0.011 | [17] -0.024 | [18] -0.028 | [19] 0.059 | [20] 0.025

B3GNT2 (UniProt Q9NY97)
inactive: [1] -0.007 | [2] -0.099 | [3] -0.074 | [4] 0.118 | [5] -0.08 | [6] -0.019 | [7] 0.034 | [8] 0.009 | [9] 0.102 | [10] 0.027 | [11] -0.014 | [12] 0.062 | [13] -0.011 | [14] 0.054 | [15] -0.087 | [16] -0.042 | [17] -0.093 | [18] 0.058 | [19] -0.033 | [20] 0.063
